Source: paper PMC6704105
Results are given in words; binding and its absence hold for the method and conditions named. In cells and extracts the contact can be indirect. Here binding means that the protein was enriched with, or labelled near, the bait; the list need not be complete.

By UniProt entry, the sequences of proteins in these tests, tags left out.
UniProt P35222: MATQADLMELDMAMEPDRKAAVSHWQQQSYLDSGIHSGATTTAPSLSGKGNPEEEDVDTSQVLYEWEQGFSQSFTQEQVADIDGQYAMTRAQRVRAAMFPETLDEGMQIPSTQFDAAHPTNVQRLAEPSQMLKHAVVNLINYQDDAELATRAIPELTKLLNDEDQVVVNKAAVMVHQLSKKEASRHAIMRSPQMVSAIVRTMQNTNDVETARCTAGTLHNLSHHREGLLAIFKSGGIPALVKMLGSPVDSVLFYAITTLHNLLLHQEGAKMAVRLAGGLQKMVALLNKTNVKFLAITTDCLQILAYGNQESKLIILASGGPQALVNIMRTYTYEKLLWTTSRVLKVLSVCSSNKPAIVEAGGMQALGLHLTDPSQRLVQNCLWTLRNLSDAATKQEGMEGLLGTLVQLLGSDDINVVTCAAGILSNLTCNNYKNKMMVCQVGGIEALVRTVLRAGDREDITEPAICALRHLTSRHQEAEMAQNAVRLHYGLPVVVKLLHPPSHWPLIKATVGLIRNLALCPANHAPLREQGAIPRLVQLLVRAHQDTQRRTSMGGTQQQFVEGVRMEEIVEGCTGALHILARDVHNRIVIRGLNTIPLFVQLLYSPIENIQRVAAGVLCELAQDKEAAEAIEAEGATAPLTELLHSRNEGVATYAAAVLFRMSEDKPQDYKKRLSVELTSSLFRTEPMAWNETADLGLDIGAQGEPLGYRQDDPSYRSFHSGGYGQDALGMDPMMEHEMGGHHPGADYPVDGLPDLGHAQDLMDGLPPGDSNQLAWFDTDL
UniProt O43524: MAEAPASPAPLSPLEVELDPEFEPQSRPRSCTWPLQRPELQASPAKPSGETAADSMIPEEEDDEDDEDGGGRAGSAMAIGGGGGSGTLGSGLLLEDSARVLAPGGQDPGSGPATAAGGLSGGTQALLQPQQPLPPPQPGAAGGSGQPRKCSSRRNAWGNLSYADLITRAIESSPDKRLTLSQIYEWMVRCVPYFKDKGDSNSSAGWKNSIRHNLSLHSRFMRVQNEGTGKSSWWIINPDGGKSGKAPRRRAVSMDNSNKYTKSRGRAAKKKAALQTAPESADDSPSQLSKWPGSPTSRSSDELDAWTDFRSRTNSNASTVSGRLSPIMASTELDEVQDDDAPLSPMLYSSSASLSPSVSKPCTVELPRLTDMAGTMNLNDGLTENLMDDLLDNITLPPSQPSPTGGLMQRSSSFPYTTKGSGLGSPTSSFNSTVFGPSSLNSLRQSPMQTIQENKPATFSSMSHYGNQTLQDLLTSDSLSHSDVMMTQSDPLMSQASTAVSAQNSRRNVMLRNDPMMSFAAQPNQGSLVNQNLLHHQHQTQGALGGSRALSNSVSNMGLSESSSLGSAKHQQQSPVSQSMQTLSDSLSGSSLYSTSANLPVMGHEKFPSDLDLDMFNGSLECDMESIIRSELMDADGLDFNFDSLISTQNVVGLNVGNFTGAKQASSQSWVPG
UniProt P51532: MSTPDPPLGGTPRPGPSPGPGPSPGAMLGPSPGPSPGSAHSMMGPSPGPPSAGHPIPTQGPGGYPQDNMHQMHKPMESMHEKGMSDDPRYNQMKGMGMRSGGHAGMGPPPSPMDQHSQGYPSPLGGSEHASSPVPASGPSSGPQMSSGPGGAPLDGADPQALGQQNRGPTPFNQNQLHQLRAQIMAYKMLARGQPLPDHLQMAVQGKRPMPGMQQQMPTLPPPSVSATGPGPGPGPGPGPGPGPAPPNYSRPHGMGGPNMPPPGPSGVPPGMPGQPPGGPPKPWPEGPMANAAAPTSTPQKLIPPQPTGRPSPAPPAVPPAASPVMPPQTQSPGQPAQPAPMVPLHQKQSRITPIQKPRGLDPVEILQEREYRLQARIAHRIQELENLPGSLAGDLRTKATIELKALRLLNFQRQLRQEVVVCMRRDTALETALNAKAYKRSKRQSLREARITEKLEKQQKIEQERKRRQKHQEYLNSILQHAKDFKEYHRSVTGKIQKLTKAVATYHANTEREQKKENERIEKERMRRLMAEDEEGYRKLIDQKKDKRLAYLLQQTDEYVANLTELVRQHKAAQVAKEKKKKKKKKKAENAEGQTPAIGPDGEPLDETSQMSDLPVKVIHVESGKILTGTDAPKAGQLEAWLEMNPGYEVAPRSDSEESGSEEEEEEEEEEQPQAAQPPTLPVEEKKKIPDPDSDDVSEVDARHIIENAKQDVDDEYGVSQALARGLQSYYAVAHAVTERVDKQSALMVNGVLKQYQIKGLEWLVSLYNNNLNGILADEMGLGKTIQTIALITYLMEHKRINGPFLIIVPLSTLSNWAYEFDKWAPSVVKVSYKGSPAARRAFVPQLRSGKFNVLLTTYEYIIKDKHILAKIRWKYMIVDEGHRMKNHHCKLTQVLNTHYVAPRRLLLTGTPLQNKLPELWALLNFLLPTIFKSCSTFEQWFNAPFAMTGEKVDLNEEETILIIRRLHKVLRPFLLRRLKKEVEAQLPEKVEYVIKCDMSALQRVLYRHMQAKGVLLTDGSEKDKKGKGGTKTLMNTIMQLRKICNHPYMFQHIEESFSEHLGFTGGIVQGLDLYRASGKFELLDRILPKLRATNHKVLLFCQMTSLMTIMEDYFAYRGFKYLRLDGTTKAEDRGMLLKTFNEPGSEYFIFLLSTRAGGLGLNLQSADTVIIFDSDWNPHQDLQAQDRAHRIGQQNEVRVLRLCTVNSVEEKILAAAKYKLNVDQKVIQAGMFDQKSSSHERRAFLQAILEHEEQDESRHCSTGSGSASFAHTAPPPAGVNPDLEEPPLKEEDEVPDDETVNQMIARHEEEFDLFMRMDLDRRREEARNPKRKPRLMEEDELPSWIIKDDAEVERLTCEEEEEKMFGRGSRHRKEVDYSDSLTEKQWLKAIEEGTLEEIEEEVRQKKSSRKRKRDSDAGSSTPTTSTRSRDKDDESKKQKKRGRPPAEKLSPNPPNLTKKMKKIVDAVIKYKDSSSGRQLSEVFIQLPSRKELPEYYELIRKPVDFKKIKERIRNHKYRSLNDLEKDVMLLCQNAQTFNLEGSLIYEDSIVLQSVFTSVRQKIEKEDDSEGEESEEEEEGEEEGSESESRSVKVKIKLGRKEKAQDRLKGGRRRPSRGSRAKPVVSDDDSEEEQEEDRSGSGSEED
UniProt P09874: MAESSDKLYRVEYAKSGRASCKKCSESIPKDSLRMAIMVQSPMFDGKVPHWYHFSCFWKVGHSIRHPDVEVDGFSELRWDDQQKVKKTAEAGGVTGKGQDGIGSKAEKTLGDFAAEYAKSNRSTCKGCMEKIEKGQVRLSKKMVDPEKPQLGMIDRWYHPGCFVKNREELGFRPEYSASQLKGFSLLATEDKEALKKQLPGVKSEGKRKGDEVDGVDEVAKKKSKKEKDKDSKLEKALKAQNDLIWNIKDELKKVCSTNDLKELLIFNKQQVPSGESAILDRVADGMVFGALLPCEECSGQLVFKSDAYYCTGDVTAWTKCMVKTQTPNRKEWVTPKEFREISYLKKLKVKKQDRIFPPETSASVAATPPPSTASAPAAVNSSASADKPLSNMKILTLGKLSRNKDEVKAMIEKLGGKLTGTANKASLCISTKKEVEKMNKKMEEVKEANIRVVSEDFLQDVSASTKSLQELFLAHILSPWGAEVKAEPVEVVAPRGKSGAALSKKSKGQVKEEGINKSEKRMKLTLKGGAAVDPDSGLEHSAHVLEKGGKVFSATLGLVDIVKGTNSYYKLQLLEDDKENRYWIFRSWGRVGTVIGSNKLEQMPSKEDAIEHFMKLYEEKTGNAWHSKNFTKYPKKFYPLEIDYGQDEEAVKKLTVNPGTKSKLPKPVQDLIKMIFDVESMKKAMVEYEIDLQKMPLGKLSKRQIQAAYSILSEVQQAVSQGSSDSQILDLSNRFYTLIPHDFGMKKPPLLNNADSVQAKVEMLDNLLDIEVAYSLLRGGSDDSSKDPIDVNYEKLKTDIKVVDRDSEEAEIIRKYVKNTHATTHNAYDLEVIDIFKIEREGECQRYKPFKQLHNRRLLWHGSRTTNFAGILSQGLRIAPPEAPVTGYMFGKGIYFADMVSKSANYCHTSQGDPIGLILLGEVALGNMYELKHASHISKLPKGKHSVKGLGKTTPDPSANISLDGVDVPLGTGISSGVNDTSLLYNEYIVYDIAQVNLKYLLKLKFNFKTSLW

B1: Jun Dimerization Protein 2 (JDP2) (protein, UniProt Q8WYK2 1-163)
chain: MMPGQIPDPSVTTGSLPGLGPLTGLPSSALTVEELKYADIRNLGAMIAPLHFLEVKLGKRPQPVKSELDEEEERRKRRREKNKVAAARCRNKKKERTEFLQRESERLELMNAELKTQIEELKQERQQLILMLNRHRPTCIVRTDSVKTPESEGNPLLEQLEKK

molecular target: β-catenin (β-catenin-transduced 293FT cells) (UniProt P35222); assay: affinity purification with mass spectrometry; chromatin fraction of CPT (10 μM, 1 h)-treated β-catenin-transduced 293FT cells, treated with DNAase; anti-β-catenin antibody and protein G-agarose overnight at 4 °C; wash 25 mM HEPES pH 7.4, 150 mM NaCl, 0.5% NP-40; five bands excised for MS; anti-IgG control

| binding | Molecule |
| --- | --- |
| binds | FOXO3 (from UniProt O43524 1-673) |
| binds | SMARCA4 (from UniProt P51532 1-1647) |
| binds | poly (ADP-ribose) polymerase 1 (PARP1) (from UniProt P09874 1-1014) (enzyme) |
| binds | B1 |
